Experimental data from patent US20260055194A1.
Results are given in words; binding and its absence hold for the method and conditions named. Some binding calls cover weakened binding; strength is not graded here.

The chains behind the UniProt entries cited, without tags or fusion partners. Residues count along the entry.
UniProt P11717, residues 41-1365: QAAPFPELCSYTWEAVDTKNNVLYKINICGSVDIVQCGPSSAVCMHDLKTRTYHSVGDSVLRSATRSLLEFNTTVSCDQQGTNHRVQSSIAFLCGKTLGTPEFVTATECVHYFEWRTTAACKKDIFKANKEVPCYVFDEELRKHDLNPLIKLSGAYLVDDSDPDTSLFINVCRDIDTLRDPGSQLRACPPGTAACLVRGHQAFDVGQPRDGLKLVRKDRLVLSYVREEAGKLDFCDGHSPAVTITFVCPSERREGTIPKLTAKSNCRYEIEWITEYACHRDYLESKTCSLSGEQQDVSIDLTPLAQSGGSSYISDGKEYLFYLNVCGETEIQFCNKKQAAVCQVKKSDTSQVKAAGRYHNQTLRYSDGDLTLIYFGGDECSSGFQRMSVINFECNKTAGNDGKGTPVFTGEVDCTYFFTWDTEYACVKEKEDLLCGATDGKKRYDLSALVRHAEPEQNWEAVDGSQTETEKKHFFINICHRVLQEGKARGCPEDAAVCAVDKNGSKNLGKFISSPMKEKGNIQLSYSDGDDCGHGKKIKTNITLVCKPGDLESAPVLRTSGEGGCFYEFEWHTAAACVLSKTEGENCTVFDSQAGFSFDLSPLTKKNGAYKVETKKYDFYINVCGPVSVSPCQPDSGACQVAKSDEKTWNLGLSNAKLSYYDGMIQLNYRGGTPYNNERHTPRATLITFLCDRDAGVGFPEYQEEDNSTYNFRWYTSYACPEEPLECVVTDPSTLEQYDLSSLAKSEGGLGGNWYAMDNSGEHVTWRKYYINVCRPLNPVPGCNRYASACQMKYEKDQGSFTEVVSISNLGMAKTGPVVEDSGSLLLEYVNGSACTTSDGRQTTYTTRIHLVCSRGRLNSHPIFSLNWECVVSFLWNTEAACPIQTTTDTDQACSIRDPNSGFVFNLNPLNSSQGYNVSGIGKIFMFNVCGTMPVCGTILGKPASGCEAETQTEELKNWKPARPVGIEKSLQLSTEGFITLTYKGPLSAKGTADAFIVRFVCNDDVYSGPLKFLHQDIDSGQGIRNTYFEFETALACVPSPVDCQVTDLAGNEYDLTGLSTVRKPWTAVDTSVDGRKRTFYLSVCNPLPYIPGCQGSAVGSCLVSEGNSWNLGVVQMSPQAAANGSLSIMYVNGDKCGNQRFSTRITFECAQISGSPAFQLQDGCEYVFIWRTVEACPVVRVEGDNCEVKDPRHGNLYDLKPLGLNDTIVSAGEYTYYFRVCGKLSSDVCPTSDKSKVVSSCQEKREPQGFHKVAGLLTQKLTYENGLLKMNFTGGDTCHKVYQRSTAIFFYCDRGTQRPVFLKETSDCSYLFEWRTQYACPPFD

Experiments:
[1] = biological target: purified recombinant CI-M6PR (domains 1-9) protein (human) (UniProt P11717); test: ELISA on human M6PR, Abs 450nm, antibody about 0.0005-1 ug/mL
[2] = biological target: purified recombinant CI-M6PR (domains 1-9) protein (human) (UniProt P11717); test: BLI, association at pH 7.4, Koff at pH 6.0 or 5.0 divided by Koff at pH 7.4
[3] = biological target: purified recombinant CI-M6PR (domains 1-9) protein (human) (UniProt P11717); test: BLI domain mapping with chimeric human/mouse CI-M6PR
[4] = biological target: purified recombinant CI-M6PR (domains 1-9) protein (human) (UniProt P11717); test: BLI, antibody on anti-mouse IgG Fc sensor, His-tagged CI-M6PR construct in solution (domain mapping)
[5] = biological target: purified recombinant CI-M6PR (domains 1-9) protein (human) (UniProt P11717); test: BLI; association at pH 7.4, dissociation at pH 7.4, 6.0 or 5.0 in citric acid buffer
[6] = biological target: purified recombinant CI-M6PR (domains 1-9) protein (human) (UniProt P11717); test: BLI, antibody on anti-mouse IgG Fc sensor, human CI-M6PR in citric acid buffer, association at pH 7.4, dissociation at pH 7.4, 6.0 or 5.0
[7] = biological target: purified recombinant CI-M6PR (domains 1-9) protein (human) (UniProt P11717); test: BLI; Koff at pH 5.0 and pH 6.0 divided by Koff at pH 7.4

Measured: binding

B1: 53B11 (antibody, V domains shown)
VH: EVQLQQSGPELVKPGTSMKISCKASGYSFTDYTVNWVKQSHGKNLEWIGLINPYNGGTSYNQKFKGKATLTVDKSSSTAYMELLSLTSEDSAVYYCARWGYYYATSYYFAMDYWGQGTSVTVSS
VL: DIQMNQSPSSLSASLGDTITITCHASQNINVWLSWYQQKPGNIPKLLIYKASNLHTGVPSRFSGSGSGTGFTLTISSLQPEDIATYYCQQGQSYPWTFGGGTKLEIK
binds: [1] | [2] | [3] | [4]

B2: 18G4 (antibody, V domains shown)
VH: EVKLMESGGGLVQPGASLRLSCAASGFTFTDYYMSWVRQPPGKAPEWLALIRNKANGYTTEYNASVKGRFTISRDNSQNILYLQMNTLRTEDSATYYCVRGGFAYWGQGTLVTVSA
VL: QAVVIQESALTTSPGETVTLTCRSSTGAVTTSHYAIWVQEKPDHLFTGLIGGTNNRVPGVPARFSGSLIADKAALTITGAQTEDEAIYFCALWYTNQFIFGSGTKVTVL
binds: [1] | [2] | [3] | [5] | [6] | [4]

B3: 10H5-2 (antibody, V domains shown)
VH: EVQLQQSGAELVRPGASVKLSCTASGFNIKDDYMHWVKQRPEQGLEWIGWIDPENGDTEYASKFQGKATITADTSSNTAYLQLSSLTSEDTAVYYCTTQYGPLYFDYWGQGTTLTVSS
VL: QAVVTQESALTTSPGETVTLTCRSSTGAVTTSKYANWVQEKPDHLFTGVIGGTNNRAPGVPARFSGSLIGDKAALTITGAQTEDEAIYFCALWYSNHWVFGGGTKLTVL
binds: [1]

B4: 12D5 (antibody, V domains shown)
VH: QVQLQQPGAELVKPGASVKLSCKASGYTFTNYWMHWVKQRPGQGLEWIGMIHPNSGSTNYNEKFKSKATLTVDKSSSTAYMQLSSLTSEDSAVYYCARPHGYPFGYWGQGTTLTVSS
VL: ENVLTQSPAIMSASLGEKVTMSCRASSSVNYMYWYQQKSDASPKLWIYYTSNLAPGVPARFSGSGSGNSYSLTISSMEGEDAATYYCQQFTSSPYTFGGGTKLEIK
binds: [1]

B5: 17F11 (antibody, V domains shown)
VH: EVQLQQSGPELVKPGASVKMSCKASGYTFTDYNMHWVKQSHGKSLEWIGYINPNNGGTNYNQKFQGKATLTVNKSSRTAYMELRSLTSEDSAVYYCVRFYYGSRYYAMDYWGQGTSVTVSS
VL: DIVMTQSPATLSVTPGDRVSLSCRASQSISDYLHWYQQKSHESPRLLIKYASQSISGIPSRFSGSGSGSDFTLSINSVEPEDVGVYYCQNGHSFPYTFGGGTKLEIK
binds: [1] | [2] | [3] | [5] | [7] | [6] | [4]

B6: 21D5 (antibody, V domains shown)
VH: QVQLKQSGPGLVQPSQSLSITCTVSGFSLTRYGVHWVRQSPGKGLEWLGVIWRGGSTDYNAAFMSRLSITKDNSKSQVFFKMNSLQADDTAIYYCAKEGTGILDSWGQGTTLTVSS
VL: DIVLTQSPASLAVSLGQRATISCRASKSVSTSGYSYMHWYQQKPGQPPTLLIYLASNLESGVPARFSGSGSGTDFTLNIHPVEEEDAATYYCQHSRELPYTFGGGTKLEIK
binds: [1] | [2] | [3] | [5] | [7] | [6] | [4]

B7: 03C7 (antibody, V domains shown)
VH: QVQLQQSGPELVKPGASVKISCKASGYSFTSYYIHWVKQRPGQGLEWIGWIYPGSGNTKYNEKFKGKATLTADTSSSTAYMQLSSLTSEDSAVYYCARMGSSYWYFDVWGTGTTVTVSS
VL: ENVLTQSPAIMAASLGQKVTMTCSASSSVSSSYLHWYQQKSGASPKPLIHRTSNLASGVPARFSGSGSGTSYSLTISSVEAEDDATYYCQQWSGYPLTFGAGTKLELK
binds: [1] | [2] | [3] | [4]

B8: 45A12 (antibody, V domains shown)
VH: QVQLQQSGAELMKPGASVKISCKATGYTFSTYWIEWVKQRPGHGLEWIGEILPGSGSTNYNEKFKGKATFTADASSNTAYMQLSSLTSEDSAVYYCARDGGAMDYWGQGTSVTVSS
VL: NIMMTQSPSSLAVSAGEKVTMSCKSSQRVLYSSNQKNYLAWYQQKPGQSPKLLIYWASTRESGVPDRFTGSGSGTDFTLTISTVQPEDLAVYYCHQYLSSRTFGGGTKLEIK
binds: [1] | [2]

B9: 16H4 (antibody, V domains shown)
VH: QVQLKQSGPGLVQPSQSLSITCTASGFSLTSYGVHWVRQSPGKGLEWLGVIWSGGSTDYSAAFISRLSISKDSSKSQVFFKMNSLQADDTAIYYCARNLPITSYDPSSFYAMDYWGQGTSVTVSS
VL: DIQMTQTTSSLSASLGDRVTISCSASQGISNYLNWYQQKPDGTVKLLIYYTSSLHSGVPSRFSGSGSGTDYSLTISNLEPEDIATYYCQQYSKLPFTFGSGTKLEIK
binds: [1]

B10: 11B12 (antibody, V domains shown)
VH: QVQLQQSGPELVKPGASVKISCKASGYSFTSYYIHWVKQRPGQGLEWIGWIYPGSGNTKYNEKFKGKATLTADTSSSTAYMQLSSLTSEDSAVYYCARGNWHWYFDVWGTGTTVTVSS
VL: EIVLTQSPALMAASPGEKVTITCSVSSSISSSNLHWYQQKSETSPKPWIYGTSNLASGVPVRFSGSGSGTSYSLTISSMEAEDAATYYCQQWSSYPLTFGAGTKLELK
binds: [1] | [2] | [3] | [4]

B11: 06D1 (antibody, V domains shown)
VH: EVQLQQSGAELVRPGASVKLSCTASGFNIKDDYMHWVKQRPEQGLEWIGWIDPENGDTEYASKFQGKATITADTSSNTAYLQLSSLTSEDTAVYYCTTVAPGYYAMDYWGQGTSVTVSS
VL: ENVLTQSPAIMSASPGEKVTMTCRASSSVSSSYLHWYQQKSGASPKLWIYSTSNLASGVPARFSGSGSGTSYSLTISSVEAEDAATYYCQQYSGFTFGSGTKLEIK
binds: [1] | [2] | [3] | [4]

B12: 08D8 (antibody, V domains shown)
VH: QVQLQQPGAELVKPGASVKLSCKASGYTFTSYWMQWVKQRPGQGLEWIGEIDPSDSYTNYNQKFKGKATLTVDTSSSTAYMQLSSLTSEDSAVYYCARGDYYGSSSWFAYWGQGTLVTVSA
VL: DIVMTQAAPSVPVTPGESVSISCRSSKSLLHSNGNTYLYWFLQRPGQSPQLLIYRMSNLASGVPDRFSGSGSGTAFTLRISRVEAEDVGVYYCMQHLEYPFTFGAGTKLELK
binds: [1] | [4]
